Data published in patent US12070454B1, “Anesthetic nerve block and method” (PFOF LLC, priority 2022, dated 2024).

Conditions: after addition of alkaline NaHCO3/Na2CO3/NaOH mixture

CCN(CC)CC(=O)Nc1c(C)cccc1C [lidocaine]
unprotonated (unbound) fraction: ~95%
